PubChem BioAssay AID504784, Drosophila RNAi Screening Center, 2011
Screen: 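Genome-wide knock-down for genes giving too much or too little stored lipid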 (primary screen). Cell system: Drosophila Kc167 embryonic cells. Reagents: long dsRNA against Drosophila genes, about 250 ng dsRNA per well. Duration: 4 days. Treatment: cells fed 400 µM oleic acid bound to BSA. Detection: 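Cells imaged and segmented; ratio of lipid droplet area to nuclear area, log-transformed, then normalised as a B-score over the screen; higher means more stored lipid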. Reading the numbers: droplet/nuclear area B-score: higher = more stored lipid (overstorage).
The deposit covers about 17,000 reagents; shown is a random part of those with a known target gene and a result. 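Each column is one replicate's B-score; the combined score over replicates was not deposited, so single values may mislead.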 Reagents against one gene are numbered here. A plus sign joins genes that one reagent is predicted to hit. Reagent sequences are not shown.

| Target gene | dsRNA no. | droplet/nuclear area B-score, replicate 1 | droplet/nuclear area B-score, replicate 2 | droplet/nuclear area B-score, replicate 3 |
| --- | --- | --- | --- | --- |
| CG2291 | 1 | -0.717 | -0.25 | – |
| CG5504 | 1 | -0.617 | 0.542 | – |
| List | 1 | 0.588 | -0.915 | – |
| CG10194 | 1 | 0.666 | 1.15 | – |
| CG3163 | 1 | 0.516 | -0.0832 | – |
| CG4935 | 1 | 0.0786 | 0.826 | – |
| dpy | 1 | 0.163 | 0.523 | – |
| dpy | 2 | 0.0927 | 0.855 | – |
| dpy | 3 | -0.893 | 0.711 | – |
| CR30374 | 1 | 0.926 | 1.05 | – |
| CG13972 | 1 | -0.932 | -0.224 | – |
| Prosbeta7 | 1 | -2.85 | 1.95 | – |
| Vamp7 | 1 | -0.664 | -1.58 | – |
| Tsp42Ec | 1 | -0.086 | -1.07 | – |
| RN-tre | 1 | 1.85 | 0.157 | – |
| Upf1 | 1 | 3.04 | 1.12 | 1.89 |
| isoQC | 1 | -0.107 | 0.00115 | – |
| CG13005 | 1 | 0.839 | 0.863 | – |
| CG9192 | 1 | -0.131 | -0.94 | – |
| CtBP | 1 | 0.54 | 1.86 | – |
| CG6610 | 1 | -1.88 | -0.616 | – |
| whe | 1 | -0.195 | -0.836 | – |
| PolE2 | 1 | 1.85 | -0.0577 | – |
| wge | 1 | -1.83 | 0.201 | – |
| wge | 2 | -0.0234 | 1.87 | – |
| CG8202 | 1 | -0.862 | 0.285 | – |
| ZnT63C | 1 | 2.66 | -1.15 | – |
| ZnT63C | 2 | 1.5 | 1.41 | – |
| ZnT63C | 3 | 0.532 | -0.582 | – |
| ZnT63C | 4 | 8.33 | – | – |
| CG9928 | 1 | -0.0786 | -1.08 | – |
| Ugt36A1 | 1 | 0.0194 | 0.918 | – |
| Clbn | 1 | 0.321 | -0.145 | – |
| CG11099 | 1 | -0.0162 | 2.16 | – |
| CG32148 | 1 | 2.04 | -0.812 | – |
| CG43078 | 1 | -1.73 | -4.06 | – |
| CG43078 | 2 | -0.808 | 0.441 | – |
| CG43078 | 3 | 1.68 | 1.51 | – |
| CG43078 | 4 | 1.45 | -1.36 | – |
| CG10919 | 1 | 1.49 | 0.149 | – |
| Ubc4 | 1 | 0.154 | 0.0947 | – |
| Octbeta1R | 1 | 0.0359 | 0.304 | – |
| ND-B17.2 | 1 | -0.537 | -3.71 | – |
| CG9717 | 1 | 0.152 | 2.89 | – |
| CG14839 | 1 | -0.523 | -0.558 | 0.667 |
| Cog4 | 1 | 0.431 | -1.59 | – |
| CG5104 | 1 | -1.16 | 0.617 | – |
| Cbp80 | 1 | -0.00506 | -1.27 | 0.604 |
| CG10286 | 1 | -0.0181 | -0.00772 | – |
| RhoGAP5A | 1 | -1.7 | -0.544 | 0.0955 |
| Vinc | 1 | -0.138 | -0.00339 | – |
| bt | 1 | -0.587 | -0.00339 | – |
| bt | 2 | 0.688 | -0.00339 | – |
| mRpL44 | 1 | 5.96 | -0.0099 | – |
| CG13711 | 1 | 1.57 | -0.192 | – |
| CG31706 | 1 | 1.26 | -0.579 | – |
| sau | 1 | 1.07 | -1.35 | – |
| Or83c | 1 | 0.0827 | 0.99 | – |
| CG11384 | 1 | 0.282 | 2.23 | – |
| SkpC | 1 | 0.676 | -1.08 | – |
| CG14589 | 1 | 0.198 | 2.17 | – |
| CR31700 | 1 | 0.465 | 0.41 | – |
| CR30029 | 1 | -0.197 | -2.33 | – |
| Cad99C | 1 | -1.55 | -0.536 | – |
| Cad99C | 2 | -0.341 | – | – |
| Ir75c | 1 | 0.441 | 3.02 | – |
| mh | 1 | 0.572 | 0.561 | – |
| CG14277 | 1 | 0.714 | 0.632 | – |
| CG13384 | 1 | 0.13 | -0.528 | – |
| Samtor | 1 | 0.0722 | -1.39 | – |
| CG11779 | 1 | -0.389 | 0.586 | – |
| Ccp84Ad | 1 | -1.36 | -0.0259 | 0.015 |
| Ccp84Ad | 2 | -0.815 | -1.46 | – |
| CG15369 | 1 | 0.416 | -0.224 | 0.0721 |
| rst | 1 | 2.58 | -1.14 | – |
| rst | 2 | 1.14 | 0.514 | – |
| Ddc | 1 | -1.29 | -1.08 | – |
| CG9593 | 1 | -2.16 | 0.453 | – |
| CG42331 | 1 | 0.0552 | 0.112 | – |
| CG42331 | 2 | -0.0431 | 3.2 | – |
| Sp1 | 1 | 1.58 | 2.27 | 0.0202 |
| CG9406 | 1 | 2.23 | -0.0102 | – |
| Mtch | 1 | 0.204 | 0.155 | – |
| CG6144 | 1 | 0.428 | -1.55 | – |
| CG3342 | 1 | -1.56 | 0.0451 | -0.994 |
| CG8630 | 1 | -0.034 | -1.59 | – |
| MetRS-m | 1 | 0.0332 | -1.41 | – |
| MetRS-m | 2 | -2.02 | 0.896 | – |
| nrv2 | 1 | 0.701 | 0.523 | – |
| nrv2 | 2 | -0.0275 | 0.542 | – |
| CG7025 | 1 | -0.036 | -2.66 | – |
| CG18622 | 1 | 0.361 | -0.0472 | – |
| CG32388 | 1 | 0.658 | 2.25 | – |
| Tsp42Ef | 1 | 0.689 | -0.575 | – |
| CG7564 | 1 | -2.94 | -2.22 | – |
| CG34253 | 1 | 0.0048 | -0.499 | – |
| E(spl)malpha-BFM | 1 | 1.43 | 0.313 | – |
| CG33303 | 1 | 1.47 | 0.995 | – |
| CG42568 + DnaJ-60 | 1 | 3.28 | 3.85 | – |
| CG42568 + DnaJ-60 | 2 | -0.789 | 0.669 | – |
| CG4045 | 1 | 0.308 | – | – |
| Kr-h2 | 1 | 2.77 | 0.0183 | – |
| Ykt6 | 1 | 1.62 | 1.05 | -0.187 |
| CG17841 | 1 | 2.84 | -1.55 | 0.664 |
| Arms | 1 | 0.411 | -0.736 | -1.06 |
| Arms | 2 | 0.505 | 0.927 | – |
| Arms | 3 | -0.0206 | 0.285 | – |
| Arms | 4 | 6.01 | 5.34 | – |

Ordered by “droplet/nuclear area B-score, replicate 2” (lowest first): 10 of the entries above
| Target gene | dsRNA no. | droplet/nuclear area B-score, replicate 1 | droplet/nuclear area B-score, replicate 2 | droplet/nuclear area B-score, replicate 3 |
| --- | --- | --- | --- | --- |
| Vamp7 | 1 | -0.664 | -1.58 | – |
| Tsp42Ec | 1 | -0.086 | -1.07 | – |
| CG9192 | 1 | -0.131 | -0.94 | – |
| CG13972 | 1 | -0.932 | -0.224 | – |
| isoQC | 1 | -0.107 | 0.00115 | – |
| RN-tre | 1 | 1.85 | 0.157 | – |
| CG13005 | 1 | 0.839 | 0.863 | – |
| CR30374 | 1 | 0.926 | 1.05 | – |
| Upf1 | 1 | 3.04 | 1.12 | 1.89 |
| Prosbeta7 | 1 | -2.85 | 1.95 | – |
